Data as given in PMC3962350.
These are yes or no findings as the source states them, for the method shown. In cells and extracts the contact can be indirect. Some entries that bind do so weakly or less than the wild type.

Target: T1, EB1 (endogenous, NIH3T3 fibroblasts) (mouse (endogenous in NIH3T3)) (UniProt Q61166)
T1 sequence: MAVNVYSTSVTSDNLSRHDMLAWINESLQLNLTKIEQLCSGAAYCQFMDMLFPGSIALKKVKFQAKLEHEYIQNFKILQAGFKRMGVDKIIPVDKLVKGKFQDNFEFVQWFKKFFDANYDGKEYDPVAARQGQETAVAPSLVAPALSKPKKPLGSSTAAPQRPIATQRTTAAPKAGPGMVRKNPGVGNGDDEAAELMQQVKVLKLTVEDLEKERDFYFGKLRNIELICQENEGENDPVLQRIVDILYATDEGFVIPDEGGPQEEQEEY
Assay: co-IP; immunoprecipitation of endogenous EB1 with rabbit anti-EB1 antibody (non-immune rabbit IgG as control) from pre-cleared NIH3T3 fibroblast lysates in 10% RIPA buffer with protease inhibitors and MG132, overnight at 4°C; Protein A/G beads; western blot for EB1 and Kif4

binding: binds
B1: Kif4 (endogenous, NIH3T3 fibroblasts) (protein, UniProt P33174 1-1231)
chain: MKEEVKGIPVRVALRCRPLVSKEIKEGCQTCLSFVPGEPQVVVGNDKSFTYDFVFDPSTEQEEVFNTAVAPLIKGVFKGYNATVLAYGQTGSGKTYSMGGAYTAEQEHDSAIGVIPRVIQLLFKEINKKSDFEFTLKVSYLEIYNEEILDLLCSSREKATQINIREDPKEGIKIVGLTEKTVLVASDTVSCLEQGNNSRTVASTAMNSQSSRSHAIFTISIEQRKKNDKNSSFRSKLHLVDLAGSERQKKTKAEGDRLREGININRGLLCLGNVISALGDDKKGNFVPYRDSKLTRLLQDSLGGNSHTLMIACVSPADSNLEETLNTLRYADRARKIKNKPIINIDPQAAELNHLKQQVQQLQILLLQAHGGTLPGDINVEPSENLQSLMEKNQSLVEENEKLSRGLSEAAGQTAQMLERIILTEQANEKMNAKLEELRRHAACKVDLQKLVETLEDQELKENIEIICNLQQVIAQLSDEAAACMTATIDTAGEADTQVQSSPDTSRSSDVFSTQHALRQAQMSKELIELNKALALKEALAKKMTQNDNQLQPIQFQYQDNIKNLESEVLSLQREKEELVLELQTAKKDANQAKLSERRRKRLQELEGQIADLKKKLQEQSKLLKLKESTEHTVSKLNQEIRMMKNQRVQLMRQMKEDAEKFRQWKQQKDKEVIQLKERDRKRQYELLKLERNFQKQSNVLRRKTEEAAAANKRLKDALQKQKEVAEKRKETQSRGMESTAARMKNWLGNEIEVMVSTEEAKRHLNGLLEERKILAQDVAQLKEKRESGENPPLKLRRRTFSYDEIHGQDSGAEDSIAKQIESLETELELRSAQIADLQQKLLDAESEDRPKQRWESIATILEAKCAIKYLVGELVSSKILVSKLESSLNQSKASCIDVQKMLFEEQNHFAKIETELKEELVKVEQQHQEKVLYLLSQLQQSQMTEKQLEESVSEKEQQLLSTLKCQEEELRKMQEVCEQNQQLLQENSAIKQKLTLLQVASKQKPHLTRNIFQSPDSSFEYIPPKPKPCRIKEKCLEQSFAVEGLQYYSEPSVAEQDNEDSDDHADEEWIPTKLVKVSKKSIQGCSCKGWCGNKQCGCRKQKSDCNVSCSCDPTKCRNRHQNQDNSDAIELNQDSENSFKLEDPTEVTSGLSFFHPICATPSSKILKEMCDADQVQLKQPVFVSSSDHPELKSIASESQENKAIGKKKKRALASNTSFFSGCSPIQEESH
